Experimental data published in PubChem BioAssay AID504834 (National Center for Advancing Translational Sciences (NCATS), 2011).
In all, about 320,000 compounds went through this assay and about 22,000 (6.9%) were called active. Inconclusive results, whose numbers are uncertain, are shown with a selection of clear calls. Calls follow the shape of the dose curve; as a rule, active = well fitted inhibition curve with a large enough effect; inconclusive = small, poorly fitted or top-dose-only effect, or another doubt; inactive = no such curve, though single readings can be large or run the other way. A potency beside an inconclusive call is a rough fit, not a confirmed value.

test: Primary qHTS for delayed death inhibitors of the malarial parasite plastid, 96 hour incubation; conditions: P. falciparum luciferase reporter growth; series mostly up to 28.7 µM
In short: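 Two-generation exposure (96 h) targets delayed-death phenotype. Reporter parasites carrying integrated firefly luciferase, in red cells at 2% hematocrit and 0.05% parasitemia final, kept at 37 C, 5% CO2; luminescence loss indicates inhibition.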
% is scaled to controls: 0 for no effect and ±100 for the full control effect; potency is read from the fitted curve at half-maximal effect.

**Q.** For CSc1ccccc1C(=O)NCCOc1ccccc1C, which activity change, negative = inhibition is on record?
**A.** The activity change, negative = inhibition was inactive: -20% [at 1.15 µM].

**Q.** With COc1cc(C(=O)NCC(=O)NCC2COc3ccccc3O2)cc(OC)c1OC (stereo not drawn) as the compound, how does the Potency read?
**A.** The Potency was “inactive”.

**Q.** For CCCOc1cccc(C(=O)N(Cc2ccco2)C2CCS(=O)(=O)C2)c1 (stereo not drawn), which Potency is on record?
**A.** Its Potency is inconclusive: 18.5 µM [inhibitor, single point].

**Q.** For COc1ccccc1C(=O)C1Nc2ccccc2-c2nnc(SC)nc2O1 (stereo not drawn), which Potency is on record?
**A.** The Potency was inconclusive: 7.38 µM [inhibitor, partial curve].

**Q.** For O=C(N/C(=C/c1ccc(Cl)cc1)C(=O)N1CCOCC1)c1ccccc1, which Potency is on record?
**A.** Its Potency is “inactive”.

**Q.** For CCS(=O)(=O)N1CCC(C(=O)Nc2cc(C)ccc2O)CC1, which Potency is on record?
**A.** Its Potency is active: 11.7 µM.

**Q.** With S=c1[nH]nc(-c2cccs2)n1/N=C/c1cn(-c2ccccc2)nc1-c1ccc(Cl)cc1 as the compound, how does the Potency read?
**A.** Its Potency is inconclusive: 13.1 µM [inhibitor, partial curve].

**Q.** For COc1ccccc1Nc1nc(N)nc(CN(C)C2CCCCC2)n1, which Potency is on record?
**A.** The Potency was inconclusive: 10.4 µM [inhibitor, single point].

**Q.** Which Potency does the source give for CC1CCCC(NC(=O)CCS(=O)(=O)c2ccc3c(c2)NC(=O)CS3)C1C (stereo not drawn) here?
**A.** The Potency was active: 13.1 µM.

**Q.** With Cc1cc(C(=O)OCC(=O)Nc2cc(C)on2)c2ccccc2n1 as the compound, how does the Potency read?
**A.** Its Potency is inconclusive: 18.5 µM [inhibitor, single point].

**Q.** With COC(=O)C1=C(N)Oc2c(c(=O)oc3ccccc23)C1c1cccnc1 (stereo not drawn) as the compound, how does the Potency read?
**A.** The Potency was inconclusive: 8.28 µM [inhibitor, single point].

**Q.** With Cc1cccc(OC(C)C(=O)NC2CCS(=O)(=O)C2)c1C (stereo not drawn) as the compound, how does the Potency read?
**A.** Its Potency is inconclusive: 0.522 µM [inhibitor, full curve].

**Q.** Which Potency does the source give for O=S(=O)(c1ccc(Oc2ccc(S(=O)(=O)N3CCOCC3)cc2)cc1)N1CCOCC1 here?
**A.** The Potency was inconclusive: 0.828 µM [inhibitor, partial curve].

**Q.** With CC(C)CC(=O)NC(=S)Nc1cc(C(F)(F)F)ccc1N1CCOCC1 as the compound, how does the Potency read?
**A.** Its Potency is “inactive”.

**Q.** For COc1ccccc1N(C)S(=O)(=O)c1ccc(C)c(C(=O)N2CCCCCC2)c1, which Potency is on record?
**A.** The Potency was inconclusive: 18.5 µM [inhibitor, single point].

**Q.** With CN(CC(=O)Nc1c(Cl)cccc1Cl)C(=O)c1ccccc1Cc1ccccc1 as the compound, how does the Potency read?
**A.** The Potency was inconclusive: 0.828 µM [inhibitor, full curve].

**Q.** With CN(C)Cc1c(-c2ccc(Cl)cc2)nc2ccc(Cl)cn12 as the compound, how does the Potency read?
**A.** The Potency was inconclusive: 1.85 µM [inhibitor, full curve, poor fit].

**Q.** With CCCCC1=CC2=CC(=O)C(C)(OC(=O)CC)C(=O)C2=CN1CCCCO (stereo not drawn) as the compound, how does the Potency read?
**A.** The Potency was inconclusive: 13.1 µM [inhibitor, single point].

**Q.** For Cc1ccc(SCC(=O)NC2CC2)cc1, which Potency is on record?
**A.** The Potency was “inactive”.

**Q.** Which Potency does the source give for Cc1cc(C(=O)COC(=O)Cn2c(C(F)(F)F)nc3ccccc32)c(C)n1Cc1ccco1 here?
**A.** The Potency was inconclusive: 18.5 µM [inhibitor, single point].

**Q.** For Cc1ccccc1CSCCNC(=O)COc1ccc(Cl)cc1, which Potency is on record?
**A.** Its Potency is inconclusive: 18.5 µM [inhibitor, single point].

**Q.** With Cc1ccc(-c2nn(-c3ccccc3)cc2C(=O)NC2CCC(O)CC2)cc1 (stereo not drawn) as the compound, how does the Potency read?
**A.** Its Potency is “inactive”.

**Q.** With O=C(CN(C(=O)Cn1nnc(-c2cccs2)n1)c1ccc2c(c1)OCCO2)NCc1ccccc1 as the compound, how does the Potency read?
**A.** The Potency was inconclusive: 18.5 µM [inhibitor, single point].

**Q.** Which Potency does the source give for CC(C)NC(=O)COc1ccc(Cl)cc1Cl here?
**A.** Its Potency is inconclusive: 10.4 µM [inhibitor, single point].

**Q.** With CC(C)C1CC(O)(C2(O)CCCCC2)ON1 (stereo not drawn) as the compound, how does the Potency read?
**A.** The Potency was inconclusive: 10.4 µM [inhibitor, single point].

**Q.** Which Potency does the source give for NNC(=O)CP(=O)(c1ccccc1)c1ccccc1 here?
**A.** Its Potency is “inactive”.

**Q.** With CCOC(=O)c1cc(C(=O)c2cc(Cl)ccc2O)coc1=N as the compound, how does the Potency read?
**A.** The Potency was inconclusive: 9.28 µM [inhibitor, partial curve, poor fit].

**Q.** For CCCCNC(=O)CCC(=O)Nc1ccc2nc(N3CCCCC3)cc(C)c2c1, which Potency is on record?
**A.** The Potency was inconclusive: 11.7 µM [inhibitor, partial curve, poor fit].

**Q.** For Cc1ccc(C2C3CSCC=C3C(C#N)=C(N)C2(C#N)C#N)cc1 (stereo not drawn), which Potency is on record?
**A.** Its Potency is “inactive”.

**Q.** With C=CCC(COCc1ccccc1)NS(=O)(=O)c1ccccc1Br (stereo not drawn) as the compound, how does the Potency read?
**A.** Its Potency is inconclusive: 10.4 µM [inhibitor, single point].

**Q.** With O=C(NCC1CCN(Cc2ccccc2F)CC1)Nc1ccccc1F as the compound, how does the Potency read?
**A.** The Potency was inconclusive: 11.7 µM [inhibitor, partial curve, poor fit].

**Q.** For COc1ccc(CCNC(=O)c2ccc3c(c2)N(Cc2ccccc2)CCS3)cc1OC, which Potency is on record?
**A.** Its Potency is inconclusive: 20.8 µM [inhibitor, partial curve, poor fit].

**Q.** Which Potency does the source give for O=c1cc(-c2ccc(O)cc2)oc2cc(O[C@@H]3O[C@H](CO)[C@@H](O)[C@H](O)[C@H]3O[C@@H]3OC[C@](O)(CO)[C@H]3O)cc(O)c12 here?
**A.** The Potency was inconclusive: 10.4 µM [inhibitor, single point].

**Q.** With Cc1ccc2[nH]c(=O)c(CN(CCCN(C)C)C(=O)Nc3cccc(Cl)c3)cc2c1 as the compound, how does the Potency read?
**A.** The Potency was active: 2.94 µM.

**Q.** Which Potency does the source give for Cc1csc(NC(=O)CCCNC(=O)c2ccc(Cl)cc2)n1 here?
**A.** The Potency was “inactive”.

**Q.** With Nc1nnn(Cc2ccccc2)n1 as the compound, how does the Potency read?
**A.** The Potency was “inactive”.

**Q.** Which Potency does the source give for Cc1ccc(-c2onc3ccc(C4OCCO4)cc23)cc1 here?
**A.** The Potency was inconclusive: 18.5 µM [inhibitor, single point].

**Q.** For COC(=O)CCCCC1SCC(NC(=O)OC)C1NC(=O)OC (stereo not drawn), which Potency is on record?
**A.** Its Potency is inconclusive: 18.5 µM [inhibitor, single point].

**Q.** With O=C(OCc1ccccc1)/C(=C/c1cccc([N+](=O)[O-])c1)NC(=O)c1ccco1 as the compound, how does the Potency read?
**A.** The Potency was inconclusive: 20.8 µM [inhibitor, partial curve, poor fit].

**Q.** For Cc1cccc(C(=O)Nc2ccc(NC(=O)Cc3ccc(Cl)cc3)cc2)c1, which Potency is on record?
**A.** The Potency was active: 11.7 µM.

**Q.** For CC1CN(c2nc3ccccc3nc2C(C#N)C(=O)OC2CCCCC2)CC(C)O1 (stereo not drawn), which Potency is on record?
**A.** The Potency was inconclusive: 2.33 µM [inhibitor, partial curve, poor fit].

**Q.** With CC(C)CCn1c(=O)c(C(=O)NCc2ccco2)c(O)c2ccccc21 as the compound, how does the Potency read?
**A.** The Potency was “inactive”.

**Q.** Which Potency does the source give for CCCN(CCC)CC(O)CN(c1ccccc1)S(=O)(=O)c1ccc(C)cc1 (stereo not drawn) here?
**A.** Its Potency is inconclusive: 18.5 µM [inhibitor, single point].

**Q.** Which Potency does the source give for COc1ccc(Cn2ccnc2SCC(=O)Nc2nnc(C)s2)cc1 here?
**A.** The Potency was inconclusive: 3.29 µM [inhibitor, partial curve, poor fit].

**Q.** Which Potency does the source give for O=C(C1CC1)N1CCC(Oc2cccc(C(=O)N3CCCCC3CCO)c2)CC1 (stereo not drawn) here?
**A.** Its Potency is inconclusive: 18.5 µM [inhibitor, single point].

**Q.** Which Potency does the source give for COc1ccc(C(C(=O)Nc2ccc(C(C)C)cc2)N(C)C(=O)CNC(C)=O)cc1 (stereo not drawn) here?
**A.** Its Potency is inconclusive: 18.5 µM [inhibitor, single point].

**Q.** With Cc1ccc(NC(=O)COc2ccccc2)cc1S(=O)(=O)N1CCCCCC1 as the compound, how does the Potency read?
**A.** Its Potency is inconclusive: 10.4 µM [inhibitor, partial curve, poor fit].

**Q.** With Cc1cc2ccccn2c1C(=O)c1ccncc1 as the compound, how does the Potency read?
**A.** Its Potency is inconclusive: 8.28 µM [inhibitor, partial curve].

**Q.** For CCOC(=O)c1[nH]c(Cc2[nH]c(C(=O)OCC)c(C)c2CCC(=O)OC)c(CCC(=O)OC)c1C, which Potency is on record?
**A.** Its Potency is “inactive”.

**Q.** Which Potency does the source give for COc1ccccc1C(=O)Nc1ccc(S(=O)(=O)Nc2nccs2)cc1 here?
**A.** Its Potency is “inactive”.

**Q.** With CC(C)C(=O)Nc1ncc(C(F)(F)F)cc1Cl as the compound, how does the Potency read?
**A.** The Potency was inconclusive: 0.0828 µM [inhibitor, full curve, poor fit].

**Q.** Which Potency does the source give for CCc1ccc2c(CN3CCc4cc(OC)c(OC)cc4C3)cc(=O)oc2c1 here?
**A.** Its Potency is inconclusive: 9.28 µM [inhibitor, partial curve, poor fit].

**Q.** With CCS(=O)(=O)N1Cc2ccccc2CC1C(=O)Nc1ccccc1OC (stereo not drawn) as the compound, how does the Potency read?
**A.** Its Potency is inconclusive: 13.1 µM [inhibitor, partial curve, poor fit].

**Q.** Which Potency does the source give for COc1cccc(CNC(=O)CN2C(=O)COc3ccc(S(=O)(=O)N4CCOCC4)cc32)c1 here?
**A.** The Potency was inconclusive: 10.4 µM [inhibitor, single point].

**Q.** Which Potency does the source give for Cc1ccc(Cl)cc1NC(=S)N(CCN(C)C)C(C)c1ccccn1 (stereo not drawn) here?
**A.** Its Potency is “inactive”.

**Q.** Which Potency does the source give for CCOC(=O)C1CCN(C(=O)C2CCN(c3nn4c(=O)cc(C)nc4s3)CC2)CC1 here?
**A.** Its Potency is inconclusive: 1.65 µM [inhibitor, full curve, poor fit].

**Q.** With Cc1ccnc(NC(=O)c2cc3cc(F)ccc3s2)c1 as the compound, how does the Potency read?
**A.** The Potency was “inactive”.

**Q.** Which Potency does the source give for Cc1c(F)cccc1NS(=O)(=O)c1ccc(OCCNS(C)(=O)=O)cc1 here?
**A.** Its Potency is inconclusive: 0.165 µM [inhibitor, full curve, poor fit].

**Q.** Which Potency does the source give for O=C(O)Cn1c(C(=O)Nc2nc(-c3ccccc3Cl)cs2)cc2ccccc21 here?
**A.** The Potency was inconclusive: 4.26 µM [inhibitor, partial curve, poor fit].

**Q.** Which Potency does the source give for Cc1cc(NC(=O)CSCC(=O)Nc2ccc(C)c(C)c2)no1 here?
**A.** The Potency was “inactive”.

**Q.** For COc1cc(/C=C/C(=O)OCC(=O)NCc2ccco2)ccc1OC(F)F, which Potency is on record?
**A.** The Potency was inconclusive: 11.7 µM [inhibitor, partial curve].

**Q.** With C=CCN1C2CCCC1CC(NC(=S)Nc1cccc(OC)c1)C2 (stereo not drawn) as the compound, how does the Potency read?
**A.** Its Potency is “inactive”.

**Q.** For CCC(CCC(=O)NNC(=O)Cc1ccc([N+](=O)[O-])cc1)C(=O)O (stereo not drawn), which Potency is on record?
**A.** The Potency was “inactive”.

**Q.** For O=C(CSc1ncnc2scc(-c3ccccc3)c12)N1CCN(Cc2ccc3c(c2)OCO3)CC1, which Potency is on record?
**A.** Its Potency is inconclusive: 18.5 µM [inhibitor, single point].

**Q.** For CN(C)C(=O)CSc1nnc(-c2cccnc2)n1-c1ccccc1, which Potency is on record?
**A.** The Potency was inconclusive: 10.4 µM [inhibitor, single point].

**Q.** Which Potency does the source give for Cc1c(C)c2c(OCC(=O)N[C@@H](CC(C)C)C(=O)O)cc3c(c2oc1=O)CCC(C)(C)O3 here?
**A.** Its Potency is inconclusive: 9.28 µM [inhibitor, single point].

**Q.** Which Potency does the source give for Cc1cc(C(=O)OCC(=O)c2cccs2)ccc1[N+](=O)[O-] here?
**A.** The Potency was “inactive”.

**Q.** For Cc1cc(C)nc(SCc2nc3nc(C)cc(C)n3c2Br)n1, which Potency is on record?
**A.** The Potency was active: 1.47 µM.
